These results are taken from the supplement of paper PMC6411743.

The chains behind the UniProt entries cited, without tags or fusion partners. Where a name states a change or a piece, a line headed by the entry shows the natural chain unless it says otherwise.
UniProt Q6ZNJ1: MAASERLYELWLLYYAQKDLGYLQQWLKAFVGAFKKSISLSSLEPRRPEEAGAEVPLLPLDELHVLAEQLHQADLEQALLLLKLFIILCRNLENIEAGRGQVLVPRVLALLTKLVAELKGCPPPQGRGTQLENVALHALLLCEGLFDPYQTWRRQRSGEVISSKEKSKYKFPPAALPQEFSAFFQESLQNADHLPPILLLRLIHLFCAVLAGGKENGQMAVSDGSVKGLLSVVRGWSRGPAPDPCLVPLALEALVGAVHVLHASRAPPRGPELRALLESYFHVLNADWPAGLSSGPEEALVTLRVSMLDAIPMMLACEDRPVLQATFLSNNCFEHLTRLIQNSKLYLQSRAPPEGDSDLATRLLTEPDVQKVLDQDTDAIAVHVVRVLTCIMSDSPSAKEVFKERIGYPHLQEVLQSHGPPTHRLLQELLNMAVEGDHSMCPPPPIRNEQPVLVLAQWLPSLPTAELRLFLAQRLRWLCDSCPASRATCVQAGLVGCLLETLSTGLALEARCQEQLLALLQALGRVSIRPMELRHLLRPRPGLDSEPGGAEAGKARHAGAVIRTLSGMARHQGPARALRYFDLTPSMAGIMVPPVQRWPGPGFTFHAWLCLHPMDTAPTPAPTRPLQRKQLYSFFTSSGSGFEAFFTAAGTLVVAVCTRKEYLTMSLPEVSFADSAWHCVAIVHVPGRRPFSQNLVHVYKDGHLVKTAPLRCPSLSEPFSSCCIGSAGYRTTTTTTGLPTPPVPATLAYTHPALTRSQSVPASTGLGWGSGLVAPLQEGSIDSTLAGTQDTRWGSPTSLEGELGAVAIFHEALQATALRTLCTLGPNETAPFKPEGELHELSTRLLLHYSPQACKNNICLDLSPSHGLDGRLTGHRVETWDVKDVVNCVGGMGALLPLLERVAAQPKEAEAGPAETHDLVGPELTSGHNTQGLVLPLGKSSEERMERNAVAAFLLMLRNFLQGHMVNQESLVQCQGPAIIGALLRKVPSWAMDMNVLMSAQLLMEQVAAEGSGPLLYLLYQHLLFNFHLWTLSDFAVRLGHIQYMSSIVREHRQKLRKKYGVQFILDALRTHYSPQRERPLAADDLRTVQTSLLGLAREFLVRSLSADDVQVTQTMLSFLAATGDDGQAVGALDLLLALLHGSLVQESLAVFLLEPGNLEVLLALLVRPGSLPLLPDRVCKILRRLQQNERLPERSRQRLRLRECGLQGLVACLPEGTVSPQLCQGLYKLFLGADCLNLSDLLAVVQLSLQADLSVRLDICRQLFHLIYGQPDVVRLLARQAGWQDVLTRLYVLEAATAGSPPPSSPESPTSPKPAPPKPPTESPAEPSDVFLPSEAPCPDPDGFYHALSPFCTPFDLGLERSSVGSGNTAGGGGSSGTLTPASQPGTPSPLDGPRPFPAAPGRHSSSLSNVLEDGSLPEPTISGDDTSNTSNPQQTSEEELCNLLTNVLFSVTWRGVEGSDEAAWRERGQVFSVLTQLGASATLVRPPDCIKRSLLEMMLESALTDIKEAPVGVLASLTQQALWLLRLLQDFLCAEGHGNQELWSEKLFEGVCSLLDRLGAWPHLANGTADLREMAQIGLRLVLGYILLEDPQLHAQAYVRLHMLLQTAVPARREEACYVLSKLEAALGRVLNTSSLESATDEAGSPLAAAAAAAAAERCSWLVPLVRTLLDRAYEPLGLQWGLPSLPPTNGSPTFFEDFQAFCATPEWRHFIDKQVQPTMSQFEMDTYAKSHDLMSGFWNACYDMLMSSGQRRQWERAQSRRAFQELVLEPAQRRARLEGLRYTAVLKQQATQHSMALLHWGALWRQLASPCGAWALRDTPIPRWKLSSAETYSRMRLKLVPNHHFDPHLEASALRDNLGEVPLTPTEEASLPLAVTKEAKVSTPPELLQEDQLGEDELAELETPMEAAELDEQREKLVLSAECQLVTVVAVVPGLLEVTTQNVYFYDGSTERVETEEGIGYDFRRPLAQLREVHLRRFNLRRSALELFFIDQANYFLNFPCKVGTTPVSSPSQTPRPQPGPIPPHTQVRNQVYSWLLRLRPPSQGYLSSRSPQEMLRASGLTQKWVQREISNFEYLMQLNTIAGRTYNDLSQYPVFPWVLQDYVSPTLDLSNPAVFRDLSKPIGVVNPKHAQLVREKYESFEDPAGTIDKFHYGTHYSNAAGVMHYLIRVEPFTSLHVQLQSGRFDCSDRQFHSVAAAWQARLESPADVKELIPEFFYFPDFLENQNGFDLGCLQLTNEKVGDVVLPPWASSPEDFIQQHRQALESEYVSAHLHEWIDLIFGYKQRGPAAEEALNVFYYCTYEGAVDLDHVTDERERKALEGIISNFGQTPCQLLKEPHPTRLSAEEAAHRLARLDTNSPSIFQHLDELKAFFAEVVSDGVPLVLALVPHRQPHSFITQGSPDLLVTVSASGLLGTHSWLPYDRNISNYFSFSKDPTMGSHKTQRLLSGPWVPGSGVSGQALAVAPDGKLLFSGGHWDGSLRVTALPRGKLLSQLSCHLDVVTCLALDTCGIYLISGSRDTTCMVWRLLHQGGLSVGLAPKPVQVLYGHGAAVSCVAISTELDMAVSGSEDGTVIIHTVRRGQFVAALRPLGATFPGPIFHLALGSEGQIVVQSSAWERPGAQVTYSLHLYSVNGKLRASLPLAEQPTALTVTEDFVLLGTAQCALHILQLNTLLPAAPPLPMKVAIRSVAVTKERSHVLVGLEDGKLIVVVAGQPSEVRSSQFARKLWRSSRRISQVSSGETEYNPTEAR
UniProt Q6NUK4: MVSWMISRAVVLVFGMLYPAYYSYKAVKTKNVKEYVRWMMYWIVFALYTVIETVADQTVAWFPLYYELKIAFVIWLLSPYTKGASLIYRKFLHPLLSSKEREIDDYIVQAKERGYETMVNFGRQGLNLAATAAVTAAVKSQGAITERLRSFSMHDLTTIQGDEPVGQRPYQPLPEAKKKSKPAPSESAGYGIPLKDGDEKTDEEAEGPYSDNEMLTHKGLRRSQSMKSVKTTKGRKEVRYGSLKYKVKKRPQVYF
UniProt Q6DCA0: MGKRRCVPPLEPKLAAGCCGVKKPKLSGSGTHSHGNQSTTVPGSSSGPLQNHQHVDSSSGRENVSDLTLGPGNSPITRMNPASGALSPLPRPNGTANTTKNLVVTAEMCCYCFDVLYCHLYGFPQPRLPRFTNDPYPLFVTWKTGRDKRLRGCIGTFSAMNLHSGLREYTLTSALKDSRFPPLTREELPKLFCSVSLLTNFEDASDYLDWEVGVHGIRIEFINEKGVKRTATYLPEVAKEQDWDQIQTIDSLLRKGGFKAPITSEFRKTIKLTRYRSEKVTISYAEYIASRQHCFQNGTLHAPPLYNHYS
UniProt Q66K14, whole entry: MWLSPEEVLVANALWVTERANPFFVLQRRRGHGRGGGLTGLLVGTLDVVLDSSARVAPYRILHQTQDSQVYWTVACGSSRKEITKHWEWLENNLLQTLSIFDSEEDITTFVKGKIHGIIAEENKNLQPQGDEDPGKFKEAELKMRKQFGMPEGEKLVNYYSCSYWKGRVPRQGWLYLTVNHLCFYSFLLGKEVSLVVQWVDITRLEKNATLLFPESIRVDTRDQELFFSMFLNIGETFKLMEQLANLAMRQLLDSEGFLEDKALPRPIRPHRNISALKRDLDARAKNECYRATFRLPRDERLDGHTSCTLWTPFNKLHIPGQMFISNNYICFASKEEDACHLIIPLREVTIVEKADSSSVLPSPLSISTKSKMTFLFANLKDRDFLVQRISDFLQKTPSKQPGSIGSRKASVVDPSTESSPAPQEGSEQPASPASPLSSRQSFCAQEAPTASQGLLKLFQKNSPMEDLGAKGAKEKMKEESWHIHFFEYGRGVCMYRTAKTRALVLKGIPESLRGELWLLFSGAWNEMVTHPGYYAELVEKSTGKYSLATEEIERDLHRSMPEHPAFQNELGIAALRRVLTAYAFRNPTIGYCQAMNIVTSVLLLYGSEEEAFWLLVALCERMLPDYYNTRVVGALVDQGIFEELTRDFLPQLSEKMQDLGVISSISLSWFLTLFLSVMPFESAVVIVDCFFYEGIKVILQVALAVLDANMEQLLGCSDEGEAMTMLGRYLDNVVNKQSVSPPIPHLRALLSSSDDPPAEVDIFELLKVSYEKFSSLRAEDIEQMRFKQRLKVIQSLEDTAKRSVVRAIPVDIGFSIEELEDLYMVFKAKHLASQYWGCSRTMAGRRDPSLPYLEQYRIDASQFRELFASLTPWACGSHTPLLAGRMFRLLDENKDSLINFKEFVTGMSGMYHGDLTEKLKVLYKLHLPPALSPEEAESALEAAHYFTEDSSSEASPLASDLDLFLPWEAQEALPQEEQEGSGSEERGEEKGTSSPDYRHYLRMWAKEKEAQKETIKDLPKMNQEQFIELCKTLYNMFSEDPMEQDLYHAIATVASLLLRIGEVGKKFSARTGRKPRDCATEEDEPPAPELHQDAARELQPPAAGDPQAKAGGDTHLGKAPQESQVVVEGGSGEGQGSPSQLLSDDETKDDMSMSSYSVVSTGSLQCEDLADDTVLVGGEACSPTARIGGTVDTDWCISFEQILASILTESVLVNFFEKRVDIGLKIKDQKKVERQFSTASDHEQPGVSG
UniProt Q86UX7, whole entry: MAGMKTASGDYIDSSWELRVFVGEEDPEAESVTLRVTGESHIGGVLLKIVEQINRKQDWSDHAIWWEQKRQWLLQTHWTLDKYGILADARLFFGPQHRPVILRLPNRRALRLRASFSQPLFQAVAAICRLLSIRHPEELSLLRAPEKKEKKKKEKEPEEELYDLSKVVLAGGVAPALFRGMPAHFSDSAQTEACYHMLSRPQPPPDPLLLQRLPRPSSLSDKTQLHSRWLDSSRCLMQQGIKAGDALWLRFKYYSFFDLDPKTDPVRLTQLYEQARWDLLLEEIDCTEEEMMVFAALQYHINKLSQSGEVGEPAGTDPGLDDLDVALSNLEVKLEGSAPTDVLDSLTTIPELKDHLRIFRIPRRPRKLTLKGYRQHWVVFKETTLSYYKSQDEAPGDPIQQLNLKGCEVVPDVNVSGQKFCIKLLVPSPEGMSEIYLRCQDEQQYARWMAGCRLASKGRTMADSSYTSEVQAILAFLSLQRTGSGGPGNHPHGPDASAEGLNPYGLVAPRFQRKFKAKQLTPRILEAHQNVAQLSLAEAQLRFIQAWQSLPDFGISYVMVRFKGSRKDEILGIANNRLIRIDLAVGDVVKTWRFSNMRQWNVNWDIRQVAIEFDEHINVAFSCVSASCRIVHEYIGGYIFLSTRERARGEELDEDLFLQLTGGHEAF

Compound in the experiment: Nc1nc2c(ncn2[C@@H]2O[C@H](COP(=O)(O)OP(=O)(O)OP(=O)(O)O)[C@@H](O)[C@H]2O)c(=O)[nH]1 [guanosine triphosphate]
The experiment can be described thus: NP40-soluble protein abundance relative to vehicle (solubility fold change) (ratio); higher = more soluble protein in presence of GTP. How it is done:
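Solubility proteome profiling in Jurkat crude lysate. Lysate was treated with Mg-GTP (0.1-10 mM) for 10 min at room temperature and 3 min at 37 °C, then solubilised with 0.8% NP40 and benzonase, followed by ultracentrifugation. Proteins were quantified by TMT10 LC-MS/MS; the value is the NP40-soluble abundance relative to the NP40-processed vehicle, from 3 independent experiments.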

± gives the standard deviation of the averaged measurements. Some of the results follow.

Take UniProt Q6ZNJ1 and related entries: the NP40-soluble protein abundance runs as follows: (concentration: 0.1mM) 1.08 ± 0.1; (concentration: 0.5mM) 1.09 ± 0.14; (concentration: 1mM) 1 ± 0.099; (concentration: 2mM) 1.06 ± 0.16; (concentration: 4mM) 1.1 ± 0.12; (concentration: 6mM) 0.983 ± 0.15. Also, the NP40-soluble protein abundance reads like this: (concentration: 8mM) 1.01 ± 0.12; (concentration: 10mM) 0.965 ± 0.11.
For REEP3 (UniProt Q6NUK4), the NP40-soluble protein abundance is, setting by setting: (concentration: 0.1mM) 0.931 ± 0.049; (concentration: 0.5mM) 1.08 ± 0.078; (concentration: 1mM) 1.092 ± 0.0091; (concentration: 2mM) 1.03 ± 0.025; (concentration: 4mM) 1.02 ± 0.029; (concentration: 6mM) 1.03 ± 0.059. Moreover, the NP40-soluble protein abundance reads like this: (concentration: 8mM) 1.1 ± 0.091; (concentration: 10mM) 1.03 ± 0.029.
Regarding AMMECR1L (UniProt Q6DCA0), the NP40-soluble protein abundance by setting is: (concentration: 0.1mM) 1.14 ± 0.064; (concentration: 0.5mM) 1.069 ± 0.0039; (concentration: 1mM) 1.01 ± 0.018; (concentration: 2mM) 0.985 ± 0.17; (concentration: 4mM) 1.01 ± 0.024; (concentration: 6mM) 1.03 ± 0.059. For the same target, the NP40-soluble protein abundance reads like this: (concentration: 8mM) 1.05 ± 0.11; (concentration: 10mM) 1.02 ± 0.15.
Turning to UniProt Q66K14 and related entries, the NP40-soluble protein abundance runs as follows: (concentration: 0.1mM) 1.04 ± 0.022; (concentration: 0.5mM) 1.04 ± 0.068; (concentration: 1mM) 1.008 ± 0.0063; (concentration: 2mM) 1.01 ± 0.043; (concentration: 4mM) 0.988 ± 0.06; (concentration: 6mM) 0.963 ± 0.054. In addition, the NP40-soluble protein abundance stood at 0.969 ± 0.018 (concentration: 8mM) and 0.934 ± 0.068 (concentration: 10mM).
For the target UniProt Q86UX7 and related entries, the NP40-soluble protein abundance runs as follows: (concentration: 0.1mM) 1.07 ± 0.067; (concentration: 0.5mM) 1.05 ± 0.11; (concentration: 1mM) 0.935 ± 0.067; (concentration: 2mM) 0.959 ± 0.14; (concentration: 4mM) 0.968 ± 0.11; (concentration: 6mM) 0.92 ± 0.096. Moreover, the NP40-soluble protein abundance runs as follows: (concentration: 8mM) 0.865 ± 0.058; (concentration: 10mM) 0.837 ± 0.1.
